Test results reported in article PMC4024641.

Columns and labels:
[1] = biological target: Iss10-13×myc (S. pombe); assay: co-IP; α-myc (9E10) on Protein G Dynabeads from S. pombe cell lysate, 4°C 2–3 h, lysis buffer; blot with α-FLAG-HRP; without RNase A
[2] = biological target: Iss10-13×myc (S. pombe); assay: co-IP; α-myc (9E10) on Protein G Dynabeads from S. pombe cell lysate, 4°C 2–3 h; RNase A 100 μg/mL present during binding and washing; blot with α-FLAG-HRP

B1: Red1-3×FLAG (protein, UniProt Q9UTR8 1-712)
chain: MSRSINLDELRKKALESKKKNEEDESNDSDKEDGEISEDDPVIDQSNSVPPMKVPTFPEQIPQLPPFDRFPGTNANFFPFGAPFMLPPALMFGPNTVPFFPQTASSNKTFSKRKRSSENSFNNRNKAKSSETSDSSNTSQSFKENRALKDTATSRPLALSSDTSYQKSEKAKSEKSPFLSTSKNSDANYSKTTNQKEAEKAVSQLFEVGVRFNDFIAEGIEPSVVHTLFLKLGLDSSSASSQGSLTLSADKAARSAKLRKIDSNLSDTHILPGDNGTPTVLPERKNLISLPLLKQDDWLSSSKPFGSSTPNVVIEFDSDDDGDDFSNSKIEQSNLEKPPSNSENGLTMSRSDYLALLRNKEEEIRRMTKLILRLESNKKPYRSPTSAADMKLPSVPVAAVDNKSKTHLDTFEKVVDLSSKADFVEAGPSISSSGASSSAATTNSDTTEQILEAPWLRKTEQIAVVHEEHPAQIKKSEIDILNNLIEKEEGELTKYQTLVKSKTEILTQLYTRKKQLLEQQGKGNVACLPKESDLSMDSITEVSAQADENSSQILSSKTSNAPNGTTETDFEDKVPLVDYISPFYRFKSYRFNQQFVERVPLKYRSLTYSNKIEPMKVFCKYETTGGVCNDDHCEASHFRDIKMTDDEIIQDLSRYIEGNDEIEKESYKSGLDIVMKNTDENTDFVDVATRIVEYHNLWKSERMTIPVAKVSI
Which binding [1] does the source give for B1 here?
Its binding is “binds”.

And the binding [2]?
The binding was “binds”.

These are yes or no findings as the source states them, for the method shown. Binding seen in cells or lysates may run through a third protein. Binding calls can cover weak binding; strength is not graded here. Tags and fused reporters may be left off the sequences shown.
